No constants are given. Whether binding was seen depends on the method and setting. In cells and extracts the contact can be indirect. Some entries that bind do so weakly or less than the wild type. Where a sequence is shown, tags or fusion partners need not be part of it.

For experiment [1], the target named is T1, O-linked N-acetylglucosamine (O-GlcNAc) transferase (OGT), endogenous (human (endogenous in HeLa)) (UniProt O15294).
T1 sequence: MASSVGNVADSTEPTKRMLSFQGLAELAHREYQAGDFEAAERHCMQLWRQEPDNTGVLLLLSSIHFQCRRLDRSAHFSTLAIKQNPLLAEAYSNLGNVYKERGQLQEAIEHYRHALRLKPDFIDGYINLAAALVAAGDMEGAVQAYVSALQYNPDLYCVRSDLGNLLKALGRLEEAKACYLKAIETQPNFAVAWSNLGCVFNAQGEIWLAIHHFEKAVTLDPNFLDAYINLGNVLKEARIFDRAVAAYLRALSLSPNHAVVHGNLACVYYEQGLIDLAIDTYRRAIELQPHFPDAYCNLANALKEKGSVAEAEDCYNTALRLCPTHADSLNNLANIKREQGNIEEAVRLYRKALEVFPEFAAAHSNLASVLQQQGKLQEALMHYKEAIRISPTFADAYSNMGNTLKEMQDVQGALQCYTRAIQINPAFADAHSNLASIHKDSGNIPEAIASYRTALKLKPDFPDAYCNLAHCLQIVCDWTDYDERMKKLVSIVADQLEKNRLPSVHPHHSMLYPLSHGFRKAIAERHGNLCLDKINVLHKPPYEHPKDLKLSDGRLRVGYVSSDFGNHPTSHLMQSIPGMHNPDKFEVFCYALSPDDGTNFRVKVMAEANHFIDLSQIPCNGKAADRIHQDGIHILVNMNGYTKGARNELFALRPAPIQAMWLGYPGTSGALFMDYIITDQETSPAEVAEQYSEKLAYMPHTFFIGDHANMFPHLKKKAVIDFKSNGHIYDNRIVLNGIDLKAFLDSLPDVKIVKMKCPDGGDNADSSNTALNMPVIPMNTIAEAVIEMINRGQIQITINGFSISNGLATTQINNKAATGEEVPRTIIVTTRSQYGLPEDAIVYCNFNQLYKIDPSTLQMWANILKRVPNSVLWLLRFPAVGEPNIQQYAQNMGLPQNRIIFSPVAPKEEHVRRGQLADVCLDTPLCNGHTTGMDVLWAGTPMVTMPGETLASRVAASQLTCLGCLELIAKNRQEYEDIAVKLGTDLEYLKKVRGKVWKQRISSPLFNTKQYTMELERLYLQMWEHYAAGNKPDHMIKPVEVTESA
As to the kind of experiment: co-IP.

In a further experiment the target is T2, Myc-OGT (UniProt O15294).
T2 sequence: T1 sequence
As to the kind of experiment: co-IP.

A further experiment addresses T3, Recombinant GST-OGT (UniProt O15294).
T3 sequence: T1 sequence
As to the kind of experiment: pull-down.

“Polo-like kinase 1 (PLK1), endogenous (from UniProt P53350 1-603)”: in experiment [1], the binding result is “binds”.

For “Flag-PLK1 (wild type) (from UniProt P53350 1-603)”, the binding result in the experiment with Myc-OGT and with Recombinant GST-OGT was “binds” in each case.

Source of the values: doi:10.1101/2022.08.21.504716.
